Results are given in words; binding and its absence hold for the method and conditions named. Some entries that bind do so weakly or less than the wild type.

The chains behind the UniProt entries cited, without tags or fusion partners. Where a name states a change or a piece, a line headed by the entry shows the natural chain unless it says otherwise.
UniProt P0A511: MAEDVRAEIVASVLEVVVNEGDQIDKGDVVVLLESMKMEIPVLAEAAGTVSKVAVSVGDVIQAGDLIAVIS

This experiment deals with native CFP7A of M. tuberculosis (Mycobacterium tuberculosis) (UniProt P0A511). The experiment in a line: streptavidin blot after SDS-PAGE and transfer to nitrocellulose.

For the substance “alkaline phosphatase conjugated streptavidin (from UniProt P22629 37-163)”, the binding entry is “binds”.

(Values after EP1484405A1.)
